In patent US10941152B2, “Pyrazole compounds as modulators of FSHR and uses thereof” (TOCOPHERX, INC., priority 2014, dated 2021):
Structures were worked out from names or drawings and are uncertain.

Protein sequences, listed by entry. Tags and fused reporters are not part of them. Residues count along the entry.
UniProt P23945, 18-695 limits assumed: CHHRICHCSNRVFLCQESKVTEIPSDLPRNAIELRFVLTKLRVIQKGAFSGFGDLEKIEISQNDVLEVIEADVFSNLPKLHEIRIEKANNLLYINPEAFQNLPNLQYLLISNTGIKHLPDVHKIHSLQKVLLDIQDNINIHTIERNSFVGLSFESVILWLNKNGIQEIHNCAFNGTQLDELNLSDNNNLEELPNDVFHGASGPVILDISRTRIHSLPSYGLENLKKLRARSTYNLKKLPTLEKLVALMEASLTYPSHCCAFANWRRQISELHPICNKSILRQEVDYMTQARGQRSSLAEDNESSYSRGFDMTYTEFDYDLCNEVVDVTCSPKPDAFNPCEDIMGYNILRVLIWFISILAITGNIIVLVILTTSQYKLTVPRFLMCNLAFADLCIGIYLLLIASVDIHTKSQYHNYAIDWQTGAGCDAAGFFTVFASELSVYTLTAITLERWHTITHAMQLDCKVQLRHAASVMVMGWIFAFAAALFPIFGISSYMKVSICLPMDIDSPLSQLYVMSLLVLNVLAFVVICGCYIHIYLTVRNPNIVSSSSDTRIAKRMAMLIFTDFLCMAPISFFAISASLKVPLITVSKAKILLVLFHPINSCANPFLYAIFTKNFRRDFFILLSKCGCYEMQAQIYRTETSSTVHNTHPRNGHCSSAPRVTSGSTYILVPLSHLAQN

Molecular target: FSHR (Homo sapiens, UniProt P23945)
Test: EC50 of cyclic AMP production in CHO FSHR cells + EC20 FSH (Assay A)
Conditions: read-out: Assay A; cyclic AMP production in CHO FSHR cells + EC20 FSH (0.265 pM), HTRF
Procedure: Example 24. EC50 of cyclic AMP production in CHO FSHR cells+EC20 FSH (Assay A)
2500 Cho-FSHR-LUC-1-1-43 cells were plated per well in 5 al of phenol red free DMEM/F12+1% FBS. Cells were plated in 384 well, solid white low volume plates (Greiner 784075) by Multidrop. Cells were assayed by adding 100 al of 2×EC20 FSH/IBMX in DMEM/F12+0.1% BSA) by Multidrop to 2 al of test compound stamped in 384 well plates (compounds are diluted 1:50). The final FSH concentration was 0.265 pM, and the final IBMX concentration was 200 μM. The compound plate map was as follows: Column 1: 2 μl of DMSO; Column 2: 2 μl of DMSO; Columns 3-12 and 13-24: 2 μl of test compound, diluted 1:4 in 100% DMSO, or 2 μl of FSH, diluted 1:4 in DMEM/F12+0.1% BSA. The starting concentration for FSH was 50 nM (final concentration was 0.5 nM). Furthermore, Column 23 contained 2 μl of EC100 FSH reference (100×) (diluted in DMEM/F12+0.1% BSA) at a final concentration of 0.5 nM, and Column 24 contained 2 μl of 1 mM AS707664/2 reference compound 2. 5 μl of compound+EC20 FSH mixture were transferred to cell plates (1:2 dilution into 5 μl of cell media) The plates were incubated at 37° C. for 1 h. […] The plates were read on Envision using the cAMP HTRF—low volume 384 well protocol. The readout was the calculated fluorescence ratio (665 nm/620 nm). […]

**Q.** How did the EC50 turn out when COc1cc2c(cc1-c1cnn(CC(N)=O)c1C)-c1c(c(C(=O)N(C)C(C)(C)C)nn1-c1cc(Cl)cc(Cl)c1)CO2 was run?
**A.** 10 to 100 nM
